According to paper PMC10763290:
These are yes or no findings as the source states them, for the method shown. For some assays here: In cells and extracts the contact can be indirect. Some entries that bind do so weakly or less than the wild type.

Chains of the proteins cited; added tags and fusions are not shown.
UniProt P40763: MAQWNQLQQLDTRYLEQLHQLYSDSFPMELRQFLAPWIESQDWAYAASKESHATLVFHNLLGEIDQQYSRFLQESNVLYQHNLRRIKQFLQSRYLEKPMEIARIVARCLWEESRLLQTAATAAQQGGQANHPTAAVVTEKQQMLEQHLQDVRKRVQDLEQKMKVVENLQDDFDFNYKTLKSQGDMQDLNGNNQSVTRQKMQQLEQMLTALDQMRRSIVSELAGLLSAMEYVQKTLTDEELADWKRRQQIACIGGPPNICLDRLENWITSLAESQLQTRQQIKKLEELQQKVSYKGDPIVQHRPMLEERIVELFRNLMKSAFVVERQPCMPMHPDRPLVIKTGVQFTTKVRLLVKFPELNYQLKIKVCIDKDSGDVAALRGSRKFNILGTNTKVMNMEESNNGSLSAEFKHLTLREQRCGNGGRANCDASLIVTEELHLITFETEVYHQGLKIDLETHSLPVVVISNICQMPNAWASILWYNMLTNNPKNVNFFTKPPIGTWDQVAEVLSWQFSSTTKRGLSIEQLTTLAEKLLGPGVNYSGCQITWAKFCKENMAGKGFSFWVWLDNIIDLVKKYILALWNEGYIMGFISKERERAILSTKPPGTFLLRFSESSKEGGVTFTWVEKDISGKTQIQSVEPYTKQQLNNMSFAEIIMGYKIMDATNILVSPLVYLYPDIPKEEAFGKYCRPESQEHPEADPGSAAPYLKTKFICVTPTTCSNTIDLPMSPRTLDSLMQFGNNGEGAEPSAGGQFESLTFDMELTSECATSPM

What was measured:
[1] = target: STAT3 (human (endogenous in PCa cells)) (UniProt P40763); assay: re-ChIP (sequential chromatin immunoprecipitation); DU145 cells; soluble chromatin precipitated with primary antibodies, qPCR of the MYC promoter, fold change to IgG
[2] = target: STAT3 (human (endogenous in PCa cells)) (UniProt P40763); assay: co-IP; total protein of PCa cells extracted with the Pierce Classic Magnetic IP/Co-IP Kit; co-IP with anti-NCAPG2 and anti-STAT3 primary antibodies; western blot

B1: Non-SMC condensin II complex subunit G2 (NCAPG2) (protein, UniProt Q86XI2 1-1143)
chain: MEKRETFVQAVSKELVGEFLQFVQLDKEASDPFSLNELLDELSRKQKEELWQRLKNLLTDVLLESPVDGWQVVEAQGEDNMETEHGSKMRKSIEIIYAITSVILASVSVINESENYEALLECVIILNGILYALPESERKLQSSIQDLCVTWWEKGLPAKEDTGKTAFVMLLRRSLETKTGADVCRLWRIHQALYCFDYDLEESGEIKDMLLECFININYIKKEEGRRFLSCLFNWNINFIKMIHGTIKNQLQGLQKSLMVYIAEIYFRAWKKASGKILEAIENDCIQDFMFHGIHLPRRSPVHSKVREVLSYFHHQKKVRQGVEEMLYRLYKPILWRGLKARNSEVRSNAALLFVEAFPIRDPNLHAIEMDSEIQKQFEELYSLLEDPYPMVRSTGILGVCKITSKYWEMMPPTILIDLLKKVTGELAFDTSSADVRCSVFKCLPMILDNKLSHPLLEQLLPALRYSLHDNSEKVRVAFVDMLLKIKAVRAAKFWKICPMEHILVRLETDSRPVSRRLVSLIFNSFLPVNQPEEVWCERCVTLVQMNHAAARRFYQYAHEHTACTNIAKLIHVIRHCLNACIQRAVREPPEDEEEEDGREKENVTVLDKTLSVNDVACMAGLLEIIVILWKSIDRSMENNKEAKLYTINKFASVLPEYLKVFKDDRCKIPLFMLMSFMPASAVPPFSCGVISTLRSREEGAVDKSYCTLLDCLCSWGQVGHILELVDNWLPTEHAQAKSNTASKGRVQIHDTRPVKPELALVYIEYLLTHPKNRECLLSAPRKKLNHLLKALETSKADLESLLQTPGGKPRGFSEAAAPRAFGLHCRLSIHLQHKFCSEGKVYLSMLEDTGFWLESKILSFIQDQEEDYLKLHRVIYQQIIQTYLTVCKDVVMVGLGDHQFQMQLLQRSLGIMQTVKGFFYVSLLLDILKEITGSSLIQKTDSDEEVAMLLDTVQKVFQKMLECIARSFRKQPEEGLRLLYSVQRPLHEFITAVQSRHTDTPVHRGVLSTLIAGPVVEISHQLRKVSDVEELTPPEHLSDLPPFSRCLIGIIIKSSNVVRSFLDELKACVASNDIEGIVCLTAAVHIILVINAGKHKSSKVREVAATVHRKLKTFMEITLEEDSIERFLYESSSRTLGELLNS
binding [1]: binds
binding [2]: binds
